This note sets out measurements from US5646149A, “Compounds having both potent calcium antagonist and antioxidant activity and use thereof as cytoprotective agents” (Alcon Laboratories, Inc., priority 1995, dated 1997).

This assay can be described thus: Phospholipid oxidation assay in liposomes. The assay is classed as biochemical. The protocol:
The DPPH assay is a chemical assay used to determine free radical scavenging activity. The retinal pieces, liver microsomes and phospholipid oxidation models measure antioxidant activity. The calcium binding assay is a measure of the affinity of the compound for a calcium antagonist binding site. The test procedures are described in greater detail below.
Antioxidant activity was measured using a phospholipid oxidation assay. Liposomes formed from dilineoleolyl phosphocholine were exposed to Fe^+3 /EDTA (167 μM) and ascorbate (167 μM). Oxidation was measured by conjugate diene formation monitored using UV spectroscopy (Biochim. Biophys. Acta., volume 1081, pages 181-187, (1991)). The IC50 was calculated using the following non-linear regression algorithm: Y=A/[1+(B/X)^c ], wherein A=maximum, B=IC50 and c=cooperativity or relative broadness of the curves. The minimum was assumed to be zero.

Where two headings read alike, the source gives them in different places.

One may read the IC50 as the concentration that inhibits the measured activity by half. Take `Fc1ccc(C(c2ccc(F)cc2)N2CCN(C/C=C/c3ccccc3)CC2)cc1` [Flunarizine]: the concentration for half-maximal inhibition (IC50) reads like this: (Fe^+3/EDTA (167 μM) and ascorbate (167 μM), conjugate diene formation, read-out: Phospholipid Oxidation IC50) 149 µM; (Summary of Activity table, read-out: Phosopholipid Oxidation IC50) 149 µM.
